The source of these data is PMC9281110.

Protein sequences, listed by entry. Tags and fused reporters are not part of them.
UniProt P28290: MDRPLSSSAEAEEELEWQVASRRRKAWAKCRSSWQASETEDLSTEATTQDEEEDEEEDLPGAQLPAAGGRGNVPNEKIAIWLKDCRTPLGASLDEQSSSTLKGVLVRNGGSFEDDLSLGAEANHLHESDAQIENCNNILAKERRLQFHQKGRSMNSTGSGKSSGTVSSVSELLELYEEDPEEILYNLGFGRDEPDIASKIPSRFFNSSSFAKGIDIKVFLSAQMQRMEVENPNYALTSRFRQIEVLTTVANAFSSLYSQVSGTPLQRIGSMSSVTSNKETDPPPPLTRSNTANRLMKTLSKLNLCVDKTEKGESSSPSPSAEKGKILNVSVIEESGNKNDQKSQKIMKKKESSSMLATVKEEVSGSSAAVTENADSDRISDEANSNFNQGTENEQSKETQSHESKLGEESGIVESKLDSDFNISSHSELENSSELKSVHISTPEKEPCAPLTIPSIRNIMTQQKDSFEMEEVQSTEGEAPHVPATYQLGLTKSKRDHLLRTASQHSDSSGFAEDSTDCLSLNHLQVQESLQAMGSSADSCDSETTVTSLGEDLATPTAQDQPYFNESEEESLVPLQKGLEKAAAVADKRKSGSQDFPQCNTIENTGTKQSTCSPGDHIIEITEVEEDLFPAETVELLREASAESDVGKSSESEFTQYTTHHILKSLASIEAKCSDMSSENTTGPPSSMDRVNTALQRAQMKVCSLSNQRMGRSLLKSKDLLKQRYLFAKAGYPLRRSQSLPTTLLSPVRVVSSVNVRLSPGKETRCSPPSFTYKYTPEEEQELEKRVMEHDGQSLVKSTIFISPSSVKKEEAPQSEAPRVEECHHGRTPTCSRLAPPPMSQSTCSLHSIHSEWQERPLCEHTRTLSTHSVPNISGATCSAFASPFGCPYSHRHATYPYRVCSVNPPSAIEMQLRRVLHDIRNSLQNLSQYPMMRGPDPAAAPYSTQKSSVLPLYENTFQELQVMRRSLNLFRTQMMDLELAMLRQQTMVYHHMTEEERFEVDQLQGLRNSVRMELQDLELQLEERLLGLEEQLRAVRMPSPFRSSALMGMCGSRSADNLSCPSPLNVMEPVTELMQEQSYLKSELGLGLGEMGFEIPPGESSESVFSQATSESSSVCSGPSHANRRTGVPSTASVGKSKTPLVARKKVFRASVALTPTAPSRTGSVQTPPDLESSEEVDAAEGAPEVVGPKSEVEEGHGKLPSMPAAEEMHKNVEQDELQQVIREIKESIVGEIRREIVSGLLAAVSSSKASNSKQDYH

Results are given in words; binding and its absence hold for the method and conditions named. Binding seen in cells or lysates may run through a third protein. Some binding calls cover weakened binding; strength is not graded here. Tags and fused reporters may be left off the sequences shown.

Assay [1] addresses sperm specific antigen 2 (SSFA2), endogenous in human testes (human (endogenous in human testes)) (UniProt P28290). Put plainly: co-IP; endogenous proteins of human testes, lysed in RIPA buffer, antibody overnight at 4 °C, Protein A/G magnetic beads, immunoblot. A general note: In western blotting, separated proteins are transferred to a membrane and probed.
In another assay the target is Flag-WT-SSFA2 (human) (UniProt P28290). Nature of the assay: co-IP; HEK293T cotransfected with Myc-WT-GSTM3 and Flag-WT-SSFA2 plasmids, RIPA lysate, Protein A/G magnetic beads, immunoblot (anti-Flag, anti-Myc).

B1: GSTM3, endogenous in human testes (protein, UniProt P21266 1-225)
chain: MSCESSMVLGYWDIRGLAHAIRLLLEFTDTSYEEKRYTCGEAPDYDRSQWLDVKFKLDLDFPNLPYLLDGKNKITQSNAILRYIARKHNMCGETEEEKIRVDIIENQVMDFRTQLIRLCYSSDHEKLKPQYLEELPGQLKQFSMFLGKFSWFAGEKLTFVDFLTYDILDQNRIFDPKCLDEFPNLKAFMCRFEALEKIAAYLQSDQFCKMPINNKMAQWGNKPVC
On to B1, for which the binding entry in assay [1] is on record as “binds”.

B2: Myc-WT-GSTM3 (protein, UniProt P21266 1-225)
chain: B1 chain
Take B2: the binding result in the assay with Flag-WT-SSFA2 (human) is reported as “binds”.
